These are yes or no findings as the source states them, for the method shown. Binding seen in cells or lysates may run through a third protein. Some results given as binding are weak or reduced against the parent protein; the word gives no strength.
Target: toll-like receptor 4 (human (endogenous in HCC cells)) (UniProt O00206)
Experiment: co-IP; Dynabeads Co-immunoprecipitation Kit; cells lysed in NP-40 cell lysis buffer after treatments (geniposide, LPS); antibody covalently coupled to Dynabeads; SDS-PAGE and immunoblot; which of the two proteins was precipitated is not told

Sequences of proteins named here, by UniProt entry; tags and fusion partners are left off. Residues count along the entry.
UniProt O00206, residues 24-839: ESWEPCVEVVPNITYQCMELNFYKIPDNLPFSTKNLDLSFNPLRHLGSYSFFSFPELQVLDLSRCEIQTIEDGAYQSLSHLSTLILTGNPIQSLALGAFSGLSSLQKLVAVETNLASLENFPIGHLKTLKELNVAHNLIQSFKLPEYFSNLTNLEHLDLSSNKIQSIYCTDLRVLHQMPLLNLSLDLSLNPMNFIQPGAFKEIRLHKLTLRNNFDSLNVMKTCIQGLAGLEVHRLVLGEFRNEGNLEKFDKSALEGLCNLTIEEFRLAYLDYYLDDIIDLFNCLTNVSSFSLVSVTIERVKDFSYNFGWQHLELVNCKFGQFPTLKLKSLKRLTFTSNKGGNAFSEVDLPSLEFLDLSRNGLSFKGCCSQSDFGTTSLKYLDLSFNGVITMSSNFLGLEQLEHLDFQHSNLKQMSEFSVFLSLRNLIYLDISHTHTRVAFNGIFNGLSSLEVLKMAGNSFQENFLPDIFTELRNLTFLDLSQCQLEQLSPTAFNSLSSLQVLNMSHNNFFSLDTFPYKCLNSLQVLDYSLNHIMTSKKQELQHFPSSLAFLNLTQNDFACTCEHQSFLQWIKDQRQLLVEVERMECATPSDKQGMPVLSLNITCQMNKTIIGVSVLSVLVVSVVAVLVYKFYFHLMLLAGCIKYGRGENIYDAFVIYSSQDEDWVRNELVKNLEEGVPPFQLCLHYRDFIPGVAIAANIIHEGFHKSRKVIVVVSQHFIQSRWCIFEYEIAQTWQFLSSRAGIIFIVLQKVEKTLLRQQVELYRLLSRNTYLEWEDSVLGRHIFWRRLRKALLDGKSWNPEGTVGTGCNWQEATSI

B1: MD2, also known as lymphocyte antigen 96 (protein, UniProt Q9Y6Y9 19-160)
chain: QKQYWVCNSSDASISYTYCDKMQYPISINVNPCIELKRSKGLLHIFYIPRRDLKQLYFNLYITVNTMNLPKRKEVICRGSDDDYSFCRALKGETVNTTISFSFKGIKFSKGKYKCVVEAISGSPEEMLFCLEFVILHQPNSN
For B1, the binding was “binds”.

From paper PMC7312435, “Direct inhibition of the TLR4/MyD88 pathway by geniposide suppresses HIF‐1α‐independent VEGF expression and angiogenesis in hepatocellular carcinoma” (British Journal of Pharmacology, 2020)
